According to paper PMC6461442:
No constants are given. Whether binding was seen depends on the method and setting.

Molecular target: GST-Chm7 (S. cerevisiae)
Test: pull-down; Heh1 WH incubated in solution with GST-Chm7, dialysed overnight into binding buffer (50 mM Tris pH 7.4, 150 mM NaCl, 2 mM MgCl2, 2 mM CaCl2, 10% glycerol, 0.5% NP-40, 1 mM DTT), then captured on glutathione beads 1 hr at 4°C, washed thrice; stained SDS-PAGE gel; both purified

- binding: no binding
B1: Heh1 WH domain, heh1(735-834) (domain or fragment, UniProt Q03707 735-834)
chain: IEELVTQTMEKLKFQKIKSMSDPKENAYLSIVQLRDIFLSDIVDLKYKNQLWSEVVKYLEHNNSNIKSNLTEIRGEIMKCWEWIGPMELNEPKDSAENKI
